Data source: PubChem BioAssay AID504791 (Drosophila RNAi Screening Center, 2011)
Assay: 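Genes of the fly required for silencing by miRNA, siRNA or endo-siRNA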 (primary screen). System: Drosophila S2-derived reporter cells. Reagents: long dsRNA against Drosophila genes, about 150-250 ng dsRNA per well (siRNA assay); about 80-120 ng (miRNA assay). Timing: about 5 days (siRNA assay); about 4 days (miRNA assay). Treatment: copper sulfate induction of reporters: 25 µM (siRNA assay); 200 mM stated (miRNA assay), 1-2 days before reading. Measurement: 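Per-well ratio of Renilla over firefly light, expressed relative to that plate's average ratio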. Active means: 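First-pass picks had plate-scaled ratios over 1.5 for the siRNA assay, over 1.6 for the miRNA assay, or under 0.6; two distinct dsRNAs had to score alike on retest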.
The deposit covers about 23,000 reagents; this is a random part of those with a known target gene and a result. Of all reagents, 199 (0.86%) were called active. 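Plate-scaled ratios behind the calls are not deposited; printed light signals are raw; many rows marked increased or decreased are still called inactive.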 Entries without a mark were called inactive. Reagents against one gene are numbered here. A plus sign joins genes that one reagent is predicted to hit. Not stated in the record: the direction of the score.

| miRNA reporter change | stable assay Renilla, run 1 (luminescence) | stable assay firefly, run 1 (luminescence) | predicted target | reagent no. |
| --- | --- | --- | --- | --- |
| – | 10032 | 6.45e5 | Vps33B (GeneID 43077) | 1 |
| – | 6739 | 3.51e5 | AhcyL2 (GeneID 42043) | 1 |
| – | 7688 | 4.91e5 | BomBc3 (GeneID 50055) | 1 |
| – | 6046 | 3.58e5 | CG31960 (GeneID 319047) | 1 |
| – | 8030 | 5.51e5 | CG14662 (GeneID 40614) | 1 |
| – | 8375 | 4.42e5 | CG34276 (GeneID 41934) | 1 |
| – | 4375 | 3.10e5 | pasi1 (GeneID 42139) | 1 |
| – | 8938 | 6.90e5 | pasi1 (GeneID 42139) | 2 |
| – | 5495 | 4.21e5 | CG16970 (retired record) (GeneID 34740) | 1 |
| – | 8822 | 5.06e5 | CG16970 (retired record) (GeneID 34740) | 2 |
| – | 5466 | 4.01e5 | CG14115 (GeneID 39487) | 1 |
| – | 7543 | 6.30e5 | CG15537 (GeneID 43614) | 1 |
| – | 6832 | 3.46e5 | CG5715 (GeneID 42895) | 1 |
| – | 8019 | 6.05e5 | Culd (GeneID 38946) | 1 |
| – | 6808 | 4.30e5 | CG30485 (GeneID 246644) | 1 |
| – | 9789 | 4.69e5 | alpha-Est1 (GeneID 40909) | 1 |
| – | 7039 | 4.73e5 | fu (GeneID 32855) | 1 |
| – | 5754 | 3.40e5 | rno (GeneID 38027) | 1 |
| – | 8079 | 5.06e5 | 128up (GeneID 36288) | 1 |
| – | 5916 | 2.76e5 | CG13931 (GeneID 38212) | 1 |
| – | 9444 | 6.55e5 | CG9915 (GeneID 32593) | 1 |
| – | 5587 | 3.01e5 | mspo (GeneID 36632) | 1 |
| – | 4403 | 3.65e5 | Atf6 (GeneID 35480) | 1 |
| – | 6087 | 3.77e5 | Atf6 (GeneID 35480) | 2 |
| – | 6414 | 4.75e5 | CG15528 (GeneID 43575) | 1 |
| – | 6987 | 3.25e5 | CG14929 + CG4970 | 1 |
| – | 6559 | 3.68e5 | CG14929 + CG4970 | 2 |
| – | 6859 | 4.54e5 | Or59c (GeneID 37716) | 1 |

Ordered by “stable assay Renilla, run 1 (luminescence)” (high to low): some entries from above
| miRNA reporter change | stable assay Renilla, run 1 (luminescence) | stable assay firefly, run 1 (luminescence) | predicted target | reagent no. |
| --- | --- | --- | --- | --- |
| – | 9444 | 6.55e5 | CG9915 (GeneID 32593) | 1 |
| – | 8079 | 5.06e5 | 128up (GeneID 36288) | 1 |
| – | 7039 | 4.73e5 | fu (GeneID 32855) | 1 |
| – | 5916 | 2.76e5 | CG13931 (GeneID 38212) | 1 |
| – | 5754 | 3.40e5 | rno (GeneID 38027) | 1 |
| – | 5587 | 3.01e5 | mspo (GeneID 36632) | 1 |

Additional results:
| miRNA reporter change | stable assay Renilla, run 1 (luminescence) | stable assay firefly, run 1 (luminescence) | predicted target | reagent no. |
| --- | --- | --- | --- | --- |
| – | 5507 | 2.84e5 | St4 (GeneID 36548) | 1 |
| – | 4307 | 3.68e5 | CG42583 (GeneID 8674103) | 1 |
| – | 5788 | 5.30e5 | eIF4H1 (GeneID 49809) | 1 |
| – | 7816 | 6.22e5 | XNP (GeneID 43080) | 1 |
| – | 5759 | 3.27e5 | stan (GeneID 36125) | 1 |
| – | 6010 | 2.83e5 | stan (GeneID 36125) | 2 |
| – | 4616 | 4.00e5 | CG42671 (GeneID 39268) | 1 |
| – | 6370 | 2.90e5 | CG42671 (GeneID 39268) | 2 |
| – | 6046 | 4.02e5 | Tcs5 (GeneID 38600) | 1 |
| – | 4408 | 4.83e5 | CG10887 (GeneID 42399) | 1 |
| – | 5902 | 3.24e5 | CG14143 (GeneID 39256) | 1 |
| – | 6552 | 3.42e5 | CG33958 (GeneID 37088) | 1 |
| – | 7350 | 2.99e5 | CG33958 (GeneID 37088) | 2 |
| – | 4200 | 2.93e5 | lncRNA:CR32657 (GeneID 3772397) | 1 |
| – | 5095 | 4.94e5 | Hydr1 (GeneID 35930) | 1 |
| – | 5191 | 3.93e5 | dsh (GeneID 32078) | 1 |
| – | 7491 | 3.59e5 | CG32445 (GeneID 261603) | 1 |
| – | 6624 | 4.18e5 | CG14253 (GeneID 43243) | 1 |
| – | 5974 | 4.89e5 | CG9737 (GeneID 43600) | 1 |
| – | 8633 | 3.10e5 | Patr-1 (GeneID 42058) | 1 |
| – | 7706 | 5.46e5 | CG1951 (GeneID 43423) | 1 |
| – | 7615 | 4.26e5 | PIG-K (GeneID 31163) | 1 |
| – | 7062 | 3.57e5 | CG34452 (GeneID 5740876) | 1 |
| – | 7099 | 4.10e5 | CG16888 (GeneID 34789) | 1 |
| – | 8086 | 4.09e5 | CG12439 (GeneID 34234) | 1 |
| – | 6199 | 2.82e5 | RpL10Ab (GeneID 39338) | 1 |
| – | 7503 | 3.67e5 | CG13096 (GeneID 34183) | 1 |
| – | 11690 | 4.32e5 | klar (GeneID 38067) | 1 |
| – | 4696 | 4.63e5 | klar (GeneID 38067) | 2 |
| – | 8247 | 3.85e5 | Mdr50 (GeneID 36582) | 1 |
| – | 84105 | 3.30e5 | CG9641 (GeneID 33502) | 1 |
| – | 5416 | 4.29e5 | CG15731 (GeneID 32194) | 1 |
| – | 10831 | 4.82e5 | CG15731 (GeneID 32194) | 2 |
| – | 9539 | 6.26e5 | Tpi (GeneID 43582) | 1 |
| – | 3872 | 3.86e5 | snRNA:U1:95Cc + snRNA:U1:95Cb | 1 |
| – | 3176 | 3.86e5 | Cluap1 (GeneID 33142) | 1 |
| – | 1.19e5 | 1.22e6 | Nak (GeneID 35154) | 1 |
| – | 5432 | 3.93e5 | CG3894 (GeneID 37959) | 1 |
| – | 4939 | 5.59e5 | CG3894 (GeneID 37959) | 2 |
| – | 4483 | 3.89e5 | CG3894 (GeneID 37959) | 3 |
| – | 5988 | 4.06e5 | CG32318 + Klp61F + Psf1 | 1 |
| – | 6950 | 2.61e5 | mTerf5 (GeneID 42182) | 1 |
| – | 7806 | 3.89e5 | CG34230 (GeneID 5740558) | 1 |
| – | 6200 | 3.29e5 | Nup54 (GeneID 36360) | 1 |
| – | 32964 | 3.21e5 | fd59A (GeneID 37631) | 1 |
| – | 7956 | 4.38e5 | CG12517 (GeneID 34506) | 1 |
| – | 7116 | 3.46e5 | CG7484 (GeneID 39969) | 1 |
| – | 9282 | 4.57e5 | CG32712 (GeneID 318165) | 1 |
| – | 6431 | 3.10e5 | CG5357 (retired record) (GeneID 37712) | 1 |
| – | 6634 | 3.97e5 | Cyp12e1 (GeneID 41272) | 1 |
| – | 9680 | 6.10e5 | CG30393 (GeneID 246588) | 1 |
| – | 6579 | 3.90e5 | CG13841 (GeneID 50061) | 1 |
| reporter ratio lowered past the hit cutoff | – | – | CG13841 (GeneID 50061) | 2 |
| – | 15690 | 2.01e6 | Tpr2 (GeneID 34984) | 1 |
| – | 7691 | 4.05e5 | CG5863 (GeneID 42096) | 1 |
